Data from the supplement of paper PMC12823440, “Inhibitors supercharge kinase turnover through native proteolytic circuits” (Nature, 2025).
The list shows a part of the results. The calls rarely recur for the same compound in another form.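 Kinases, fused to nanoluciferase, were expressed in K562 cells; luminescence was measured every 4 h from 2 to 18 h as percent of control (DMSO = 100%, positive control = 0%). A time point is decreased if signal falls significantly (2 sigma). Hits were called by the authors by a rule that is not shown; the count of time points alone does not decide it.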

By UniProt entry, the sequences of proteins in these tests, tags left out. Where a name states a change or a piece, a line headed by the entry shows the natural chain unless it says otherwise.
UniProt Q01974, whole entry: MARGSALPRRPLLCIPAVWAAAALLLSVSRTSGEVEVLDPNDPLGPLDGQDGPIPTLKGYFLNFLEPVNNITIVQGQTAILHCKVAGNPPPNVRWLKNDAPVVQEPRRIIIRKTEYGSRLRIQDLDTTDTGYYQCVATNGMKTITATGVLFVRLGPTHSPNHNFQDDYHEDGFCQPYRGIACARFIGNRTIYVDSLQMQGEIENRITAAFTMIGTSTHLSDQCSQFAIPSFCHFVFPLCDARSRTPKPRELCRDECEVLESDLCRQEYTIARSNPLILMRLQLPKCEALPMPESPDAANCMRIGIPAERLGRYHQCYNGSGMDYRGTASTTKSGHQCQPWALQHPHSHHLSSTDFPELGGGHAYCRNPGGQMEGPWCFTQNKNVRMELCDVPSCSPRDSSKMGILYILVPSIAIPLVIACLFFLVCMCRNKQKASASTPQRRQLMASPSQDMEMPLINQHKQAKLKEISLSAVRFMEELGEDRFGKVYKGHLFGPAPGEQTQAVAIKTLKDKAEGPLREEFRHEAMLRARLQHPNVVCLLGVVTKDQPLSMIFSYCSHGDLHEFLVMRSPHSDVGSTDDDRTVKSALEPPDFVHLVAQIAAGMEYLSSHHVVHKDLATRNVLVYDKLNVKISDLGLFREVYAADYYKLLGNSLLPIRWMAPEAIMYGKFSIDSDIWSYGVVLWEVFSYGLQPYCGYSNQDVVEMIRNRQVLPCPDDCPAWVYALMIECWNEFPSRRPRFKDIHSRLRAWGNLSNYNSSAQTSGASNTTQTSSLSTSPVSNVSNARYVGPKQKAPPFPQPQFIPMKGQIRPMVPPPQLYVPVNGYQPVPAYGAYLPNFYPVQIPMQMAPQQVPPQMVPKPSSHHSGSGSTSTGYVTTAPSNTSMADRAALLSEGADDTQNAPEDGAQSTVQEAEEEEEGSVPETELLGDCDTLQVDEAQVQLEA
UniProt Q15418, whole entry: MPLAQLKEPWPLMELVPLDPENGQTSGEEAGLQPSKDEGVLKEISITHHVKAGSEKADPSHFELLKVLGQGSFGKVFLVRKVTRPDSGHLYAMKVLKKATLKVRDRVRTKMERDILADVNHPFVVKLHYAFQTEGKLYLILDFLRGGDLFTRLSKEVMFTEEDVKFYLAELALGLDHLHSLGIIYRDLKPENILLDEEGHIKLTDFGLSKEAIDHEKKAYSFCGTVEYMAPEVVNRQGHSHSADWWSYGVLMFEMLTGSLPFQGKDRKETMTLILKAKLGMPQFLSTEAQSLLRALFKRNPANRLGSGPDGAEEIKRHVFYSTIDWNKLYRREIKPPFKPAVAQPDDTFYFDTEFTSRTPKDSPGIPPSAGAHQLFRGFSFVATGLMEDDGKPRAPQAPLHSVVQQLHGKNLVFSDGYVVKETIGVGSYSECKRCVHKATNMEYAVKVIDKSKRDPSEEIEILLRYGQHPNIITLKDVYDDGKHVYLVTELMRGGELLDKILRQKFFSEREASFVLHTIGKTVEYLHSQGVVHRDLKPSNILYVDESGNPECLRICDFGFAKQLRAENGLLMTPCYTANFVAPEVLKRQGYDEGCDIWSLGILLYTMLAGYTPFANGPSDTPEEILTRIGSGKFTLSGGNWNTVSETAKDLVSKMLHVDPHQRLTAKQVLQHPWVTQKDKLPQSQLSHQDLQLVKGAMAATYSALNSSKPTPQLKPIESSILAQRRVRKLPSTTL
UniProt Q9NYA1, whole entry: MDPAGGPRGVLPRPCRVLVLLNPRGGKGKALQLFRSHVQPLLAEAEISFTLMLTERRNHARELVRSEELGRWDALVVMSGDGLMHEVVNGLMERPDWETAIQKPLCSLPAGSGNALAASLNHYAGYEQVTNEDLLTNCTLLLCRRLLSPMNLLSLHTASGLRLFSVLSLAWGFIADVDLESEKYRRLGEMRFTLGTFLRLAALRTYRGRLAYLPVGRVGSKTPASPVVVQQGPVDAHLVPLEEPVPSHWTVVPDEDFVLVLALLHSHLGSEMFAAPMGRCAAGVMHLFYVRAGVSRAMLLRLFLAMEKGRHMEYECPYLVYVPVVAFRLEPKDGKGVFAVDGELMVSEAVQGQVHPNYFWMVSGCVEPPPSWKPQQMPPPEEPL
UniProt Q9Y6E0: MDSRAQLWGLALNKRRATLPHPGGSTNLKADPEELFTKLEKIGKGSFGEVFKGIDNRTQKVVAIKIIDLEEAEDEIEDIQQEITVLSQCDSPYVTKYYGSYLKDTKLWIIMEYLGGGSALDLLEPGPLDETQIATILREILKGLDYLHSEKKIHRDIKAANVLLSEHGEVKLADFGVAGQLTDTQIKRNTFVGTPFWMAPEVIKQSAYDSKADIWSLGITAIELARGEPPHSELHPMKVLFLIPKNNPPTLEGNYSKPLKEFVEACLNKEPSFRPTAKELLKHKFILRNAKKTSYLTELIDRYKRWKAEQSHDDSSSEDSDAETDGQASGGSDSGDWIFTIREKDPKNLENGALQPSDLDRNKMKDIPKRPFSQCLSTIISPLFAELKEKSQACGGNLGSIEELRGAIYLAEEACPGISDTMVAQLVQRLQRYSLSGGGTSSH
UniProt Q15208: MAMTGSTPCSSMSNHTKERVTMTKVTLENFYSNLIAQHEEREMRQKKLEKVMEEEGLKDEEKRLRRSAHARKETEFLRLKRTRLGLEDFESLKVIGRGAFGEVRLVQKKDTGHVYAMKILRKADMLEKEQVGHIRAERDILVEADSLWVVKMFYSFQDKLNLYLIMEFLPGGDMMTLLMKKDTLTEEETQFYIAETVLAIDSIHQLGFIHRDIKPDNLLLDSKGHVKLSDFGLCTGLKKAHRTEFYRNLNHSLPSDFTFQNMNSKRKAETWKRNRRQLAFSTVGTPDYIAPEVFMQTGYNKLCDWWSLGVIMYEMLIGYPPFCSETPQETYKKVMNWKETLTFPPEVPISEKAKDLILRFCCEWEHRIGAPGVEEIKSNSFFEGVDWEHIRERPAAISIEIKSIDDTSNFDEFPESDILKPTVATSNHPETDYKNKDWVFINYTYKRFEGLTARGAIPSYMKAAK
UniProt P29597: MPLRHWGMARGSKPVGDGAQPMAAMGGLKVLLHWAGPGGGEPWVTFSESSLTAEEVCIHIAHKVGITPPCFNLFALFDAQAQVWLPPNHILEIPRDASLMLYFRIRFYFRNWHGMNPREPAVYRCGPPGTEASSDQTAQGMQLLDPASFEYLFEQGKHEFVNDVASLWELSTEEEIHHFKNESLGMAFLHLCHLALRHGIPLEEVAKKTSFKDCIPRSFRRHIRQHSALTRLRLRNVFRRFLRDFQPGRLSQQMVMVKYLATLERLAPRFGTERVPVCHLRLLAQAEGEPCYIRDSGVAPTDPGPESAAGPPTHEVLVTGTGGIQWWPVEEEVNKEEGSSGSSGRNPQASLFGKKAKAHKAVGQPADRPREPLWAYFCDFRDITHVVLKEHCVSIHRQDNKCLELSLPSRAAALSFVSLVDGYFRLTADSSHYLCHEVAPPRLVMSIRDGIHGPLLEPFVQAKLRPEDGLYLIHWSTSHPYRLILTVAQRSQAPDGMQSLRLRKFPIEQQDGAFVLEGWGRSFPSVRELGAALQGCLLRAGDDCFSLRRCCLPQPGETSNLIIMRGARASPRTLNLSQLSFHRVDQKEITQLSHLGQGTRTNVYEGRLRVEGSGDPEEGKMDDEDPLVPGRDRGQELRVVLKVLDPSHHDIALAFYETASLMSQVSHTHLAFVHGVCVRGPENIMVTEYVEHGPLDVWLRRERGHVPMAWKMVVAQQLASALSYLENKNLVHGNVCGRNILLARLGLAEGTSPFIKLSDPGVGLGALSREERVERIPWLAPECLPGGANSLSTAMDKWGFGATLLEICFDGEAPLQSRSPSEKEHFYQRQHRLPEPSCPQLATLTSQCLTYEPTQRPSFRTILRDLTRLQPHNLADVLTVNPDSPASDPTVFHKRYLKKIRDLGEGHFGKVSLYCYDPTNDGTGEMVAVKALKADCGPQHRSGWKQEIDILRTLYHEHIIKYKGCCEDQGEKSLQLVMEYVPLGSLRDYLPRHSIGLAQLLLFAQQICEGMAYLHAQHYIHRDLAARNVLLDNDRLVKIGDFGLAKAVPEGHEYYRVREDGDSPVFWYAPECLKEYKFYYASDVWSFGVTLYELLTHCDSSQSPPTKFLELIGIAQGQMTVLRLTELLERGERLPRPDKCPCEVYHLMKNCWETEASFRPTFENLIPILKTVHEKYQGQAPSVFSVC
UniProt Q6PHR2: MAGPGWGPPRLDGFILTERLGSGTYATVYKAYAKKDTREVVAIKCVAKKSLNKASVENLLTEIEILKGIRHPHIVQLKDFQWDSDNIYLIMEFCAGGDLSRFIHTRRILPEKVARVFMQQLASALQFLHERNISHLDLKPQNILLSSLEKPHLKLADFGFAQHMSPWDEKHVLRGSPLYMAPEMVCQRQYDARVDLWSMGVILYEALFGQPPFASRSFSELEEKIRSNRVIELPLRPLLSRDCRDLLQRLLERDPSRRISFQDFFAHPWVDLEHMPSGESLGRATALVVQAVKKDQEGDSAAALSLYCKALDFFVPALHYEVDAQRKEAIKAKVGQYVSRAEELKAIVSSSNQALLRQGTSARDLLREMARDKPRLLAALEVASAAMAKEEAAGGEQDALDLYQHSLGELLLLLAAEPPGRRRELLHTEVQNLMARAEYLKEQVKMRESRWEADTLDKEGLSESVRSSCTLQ
UniProt P43403: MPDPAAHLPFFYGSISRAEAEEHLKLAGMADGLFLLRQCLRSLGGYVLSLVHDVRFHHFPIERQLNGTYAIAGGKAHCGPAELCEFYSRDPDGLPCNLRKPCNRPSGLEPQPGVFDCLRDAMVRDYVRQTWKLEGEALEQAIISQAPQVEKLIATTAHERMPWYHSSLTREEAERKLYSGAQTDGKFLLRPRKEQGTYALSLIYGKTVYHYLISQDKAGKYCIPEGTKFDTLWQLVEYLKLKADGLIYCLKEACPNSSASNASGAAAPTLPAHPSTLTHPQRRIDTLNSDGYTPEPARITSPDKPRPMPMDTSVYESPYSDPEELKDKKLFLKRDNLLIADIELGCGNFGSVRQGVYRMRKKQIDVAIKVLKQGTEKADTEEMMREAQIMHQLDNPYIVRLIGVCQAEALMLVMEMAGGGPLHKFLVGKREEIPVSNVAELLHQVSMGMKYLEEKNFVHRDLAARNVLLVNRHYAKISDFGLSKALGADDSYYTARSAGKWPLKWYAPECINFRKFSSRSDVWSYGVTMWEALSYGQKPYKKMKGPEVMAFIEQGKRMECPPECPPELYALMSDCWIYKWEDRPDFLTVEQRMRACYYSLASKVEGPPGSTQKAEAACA
UniProt P11802: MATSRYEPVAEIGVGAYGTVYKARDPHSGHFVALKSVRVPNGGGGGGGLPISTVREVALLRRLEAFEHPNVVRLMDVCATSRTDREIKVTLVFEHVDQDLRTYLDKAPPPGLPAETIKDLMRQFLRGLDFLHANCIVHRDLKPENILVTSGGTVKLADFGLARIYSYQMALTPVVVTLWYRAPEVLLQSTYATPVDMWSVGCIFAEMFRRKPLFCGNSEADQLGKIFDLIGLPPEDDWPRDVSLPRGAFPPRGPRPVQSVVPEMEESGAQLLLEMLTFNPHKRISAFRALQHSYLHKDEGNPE
UniProt P50613: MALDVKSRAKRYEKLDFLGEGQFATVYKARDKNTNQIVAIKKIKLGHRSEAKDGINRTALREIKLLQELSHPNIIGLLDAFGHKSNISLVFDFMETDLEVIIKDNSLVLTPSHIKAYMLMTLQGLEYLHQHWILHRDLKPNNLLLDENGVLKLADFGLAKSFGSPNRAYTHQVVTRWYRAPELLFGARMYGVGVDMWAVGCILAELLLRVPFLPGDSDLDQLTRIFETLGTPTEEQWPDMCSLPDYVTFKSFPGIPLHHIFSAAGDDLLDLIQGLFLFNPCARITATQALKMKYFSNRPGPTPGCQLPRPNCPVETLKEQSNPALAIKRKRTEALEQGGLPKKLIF
UniProt P50750, whole entry: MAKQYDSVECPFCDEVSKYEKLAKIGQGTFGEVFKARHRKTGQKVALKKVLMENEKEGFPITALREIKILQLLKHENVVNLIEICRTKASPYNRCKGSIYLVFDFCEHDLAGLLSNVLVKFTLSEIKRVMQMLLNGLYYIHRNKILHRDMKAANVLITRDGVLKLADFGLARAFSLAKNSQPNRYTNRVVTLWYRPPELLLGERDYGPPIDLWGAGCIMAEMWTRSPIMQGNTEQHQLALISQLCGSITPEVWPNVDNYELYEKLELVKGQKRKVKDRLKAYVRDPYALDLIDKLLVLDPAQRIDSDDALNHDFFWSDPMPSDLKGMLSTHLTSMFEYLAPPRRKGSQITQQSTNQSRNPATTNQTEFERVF

Assays:
Conditions in all cases: K562; 2-18 h
ROR2 = ROR2 (UniProt Q01974); assay: number of time points (of 5) at which kinase-Nluc abundance scored as decreased, DMSO-normalised (count); higher = more persistent destabilization
RPS6KA1 = RPS6KA1 (UniProt Q15418); assay: as above
SPHK1 = SPHK1 (UniProt Q9NYA1); assay: as above
SRC = SRC (UniProt P12931); assay: as above
STK24 = STK24 (UniProt Q9Y6E0); assay: as above
STK38 = STK38 (UniProt Q15208); assay: as above
SYK = SYK (UniProt P43405); assay: as above
TEC = TEC (UniProt P42680); assay: as above
TYK2 = TYK2 (UniProt P29597); assay: as above
ULK3 = ULK3 (UniProt Q6PHR2); assay: as above
YES1 = YES1 (UniProt P07947); assay: as above
ZAK = ZAK (UniProt Q9NYL2); assay: as above
ZAP70 = ZAP70 (UniProt P43403); assay: as above
CDK4 = CDK4 (UniProt P11802); assay: number of time points (of 4; 2 h point missing) at which kinase-Nluc abundance scored as decreased, DMSO-normalised (count); higher = more persistent destabilization
CDK7 = CDK7 (UniProt P50613); assay: as above
CDK9 = CDK9 (UniProt P50750); assay: as above

Measured: number of time points

CN(C)C(=O)c1cc2cnc(Nc3ccc(NC(=O)C4(C(=O)Nc5ccc(F)cc5)CC4)cc3)nc2n1C1CCCC1 (2 µM)
2: SRC
3: TYK2
0: all other assays above

Cc1occ2c1C(=O)c1c(O)ccc(O)c1C2 (2.5 µM)
0: all assays above

C[C@@H]1CN(Cc2cn[nH]c2-c2ccc(C#N)cc2)CCN1c1ccc(C(F)(F)F)cn1 (2.5 µM)
0: all assays above

CN(C)CCCNc1ccn2ncc(-c3ccc4c(c3)OCO4)c2n1 (10 µM)
0: all assays above

COC(=O)[C@]1(C)CC[C@]2(C(=O)O[C@@H]3O[C@H](CO)[C@@H](O)[C@H](O)[C@H]3O)CC[C@]3(C)C(=CC[C@@H]4[C@@]5(C)C[C@H](O)[C@H](O[C@@H]6OC[C@@H](O[C@@H]7O[C@H](CO)[C@@H](O)[C@H](O)[C@H]7O)[C@H](O)[C@H]6O)[C@@](C)(CO)C5CC[C@]43C)[C@H]2C1 (some centres not stated) [Esculentoside H] (10 µM)
0: all assays above

CNC(=O)c1nnc(NC(=O)C2CC2)cc1Nc1cccc(-c2ncn(C)n2)c1OC [Deucravacitinib] (10 µM)
0: all assays above

3 entries from above, arranged by length of the SMILES, rising:
CN(C)CCCNc1ccn2ncc(-c3ccc4c(c3)OCO4)c2n1 (10 µM)
0: all assays above

CNC(=O)c1nnc(NC(=O)C2CC2)cc1Nc1cccc(-c2ncn(C)n2)c1OC [Deucravacitinib] (10 µM)
0: all assays above

C[C@@H]1CN(Cc2cn[nH]c2-c2ccc(C#N)cc2)CCN1c1ccc(C(F)(F)F)cn1 (2.5 µM)
0: all assays above

Next part.

CC(C)(O)c1cc(Nc2cc(Oc3cn(C4CC4)nc3C3CCOCC3)ccn2)ccn1 (10 µM)
0: all assays above

O=c1sn(-c2cccc3ccccc23)c(=O)n1Cc1ccccc1 [Tideglusib] (10 µM)
0: all assays above

CNC(=O)Nc1cc(Oc2cncc(C)c2)c(-c2ccc(OCC(C)(C)O)nc2)cn1 (2.5 µM)
0: all assays above

NC(=O)c1ccc2nc(-c3ccc(C4(N)CCC4)cc3)c(-c3ccccc3)n2n1 (10 µM)
0: all assays above

Nc1nc2c(ncn2COCCO)c(=O)[nH]1 [Acyclovir] (10 µM)
0: all assays above

Cc1ncc(F)c(Nc2n[nH]c3c2CN(C(=O)N2C[C@@H](C)N(CC4CCOCC4)C[C@@H]2C)C3(C)C)n1 (10 µM)
0: all assays above
